Results reported in patent US20170313758A1, “Polypeptides for the Treatment of Angiogenesis or Lymphangiogenesis-Related Diseases” (INSERM (Institut National de la Sante et de la Recherche …, priority 2014, published 2017).
No constants are given. Whether binding was seen depends on the method and setting. For some assays here: Binding seen in cells or lysates may run through a third protein. Some binding calls cover weakened binding; strength is not graded here.

Sequences of proteins named here, by UniProt entry; tags and fusion partners are left off. A change or cut given only in a name is not applied to a line headed by its entry.
UniProt P35968: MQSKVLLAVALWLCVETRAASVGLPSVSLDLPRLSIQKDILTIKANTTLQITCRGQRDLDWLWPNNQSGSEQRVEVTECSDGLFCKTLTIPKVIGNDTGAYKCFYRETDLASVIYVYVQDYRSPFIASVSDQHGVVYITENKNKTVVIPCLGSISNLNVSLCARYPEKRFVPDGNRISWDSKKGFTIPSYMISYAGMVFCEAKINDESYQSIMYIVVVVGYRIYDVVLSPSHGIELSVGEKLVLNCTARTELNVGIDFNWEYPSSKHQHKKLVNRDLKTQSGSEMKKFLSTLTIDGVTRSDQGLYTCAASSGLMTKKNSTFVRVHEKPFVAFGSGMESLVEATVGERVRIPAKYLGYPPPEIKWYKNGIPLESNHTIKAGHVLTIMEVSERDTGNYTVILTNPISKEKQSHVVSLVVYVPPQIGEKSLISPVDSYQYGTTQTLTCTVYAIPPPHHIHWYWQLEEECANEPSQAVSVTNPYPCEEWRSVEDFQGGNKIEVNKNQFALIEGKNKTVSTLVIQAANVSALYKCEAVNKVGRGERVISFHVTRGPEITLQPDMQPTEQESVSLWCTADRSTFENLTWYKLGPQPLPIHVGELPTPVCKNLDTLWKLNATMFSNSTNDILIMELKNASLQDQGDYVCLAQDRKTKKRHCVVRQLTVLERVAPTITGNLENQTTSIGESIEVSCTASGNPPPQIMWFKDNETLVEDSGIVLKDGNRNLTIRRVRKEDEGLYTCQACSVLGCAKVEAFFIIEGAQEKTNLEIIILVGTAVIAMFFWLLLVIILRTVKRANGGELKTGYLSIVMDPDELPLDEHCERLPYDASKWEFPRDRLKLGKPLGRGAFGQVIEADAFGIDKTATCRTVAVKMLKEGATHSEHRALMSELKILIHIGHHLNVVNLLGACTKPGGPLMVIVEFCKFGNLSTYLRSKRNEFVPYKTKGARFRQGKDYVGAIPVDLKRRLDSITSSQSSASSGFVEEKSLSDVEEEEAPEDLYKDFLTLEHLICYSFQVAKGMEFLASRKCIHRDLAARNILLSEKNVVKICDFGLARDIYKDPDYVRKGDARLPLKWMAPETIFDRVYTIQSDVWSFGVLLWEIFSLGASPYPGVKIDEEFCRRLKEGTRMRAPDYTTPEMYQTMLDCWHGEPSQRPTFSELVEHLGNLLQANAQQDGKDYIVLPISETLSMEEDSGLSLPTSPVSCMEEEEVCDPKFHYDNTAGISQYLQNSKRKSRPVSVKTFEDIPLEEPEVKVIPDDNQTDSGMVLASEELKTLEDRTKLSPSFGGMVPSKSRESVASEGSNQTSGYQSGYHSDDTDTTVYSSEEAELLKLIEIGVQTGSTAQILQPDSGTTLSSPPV
UniProt P35613: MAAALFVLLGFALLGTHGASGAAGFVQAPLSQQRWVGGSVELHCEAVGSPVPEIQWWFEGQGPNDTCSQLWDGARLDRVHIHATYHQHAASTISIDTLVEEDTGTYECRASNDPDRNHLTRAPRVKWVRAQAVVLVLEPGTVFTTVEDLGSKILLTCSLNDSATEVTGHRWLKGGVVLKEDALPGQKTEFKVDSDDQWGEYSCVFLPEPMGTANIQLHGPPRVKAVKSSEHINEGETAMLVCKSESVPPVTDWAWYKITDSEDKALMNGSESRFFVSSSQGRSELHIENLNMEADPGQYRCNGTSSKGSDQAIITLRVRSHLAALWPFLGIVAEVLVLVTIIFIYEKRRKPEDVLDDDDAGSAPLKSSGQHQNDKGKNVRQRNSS

Key:
VEGFR-2 [1] = biological target: T1, VEGFR-2 (human, UniProt P35968 20-1356); assay: in situ PLA after EMMPRIN siRNA (FIG. 2)
T1 construct: Endogenous receptor of human cells (HMEC, M10, MDA-MB-231, BLM); the whole entry is named; also called KDR

pVEGFR-2 (human) [2] = biological target: pVEGFR-2 (human) (UniProt P35968); assay: in situ PLA, cells and human cancer tissues (FIG. 3)
VEGFR-2 [3] = biological target: T1, VEGFR-2; assay: co-IP and in situ PLA after EMMPRIN siRNA; HMEC, MDA-MB-231, M10 (BLM not shown)
VEGFR-2 [4] = biological target: T1, VEGFR-2; assay: co-immunoprecipitation from HMEC and M10 lysates; in situ PLA confirmed proximity at the cell surface
pVEGFR-2 (human) [5] = biological target: pVEGFR-2 (human) (UniProt P35968); assay: in situ PLA on BLM xenograft sections (FIG. 4E)
pVEGFR-2 (human) [6] = biological target: pVEGFR-2 (human) (UniProt P35968); assay: in situ PLA on BLM xenograft sections
pVEGFR-2 (human) [7] = biological target: pVEGFR-2 (human) (UniProt P35968); assay: in situ PLA, HMEC and M10 cells; human breast cancer and melanoma tissues
VEGFR-2 [8] = biological target: T1, VEGFR-2; assay: co-IP and in situ PLA, HMEC and M10 cells (FIG. 1)

- binding (VEGFR-2 [1]): binds
- binding (pVEGFR-2 (human) [2]): binds
- binding (VEGFR-2 [3]): binds
- binding (VEGFR-2 [4]): binds
- binding (pVEGFR-2 (human) [5]): binds
- binding (pVEGFR-2 (human) [6]): binds
- binding (pVEGFR-2 (human) [7]): binds
- binding (VEGFR-2 [8]): binds
Substance: EMMPRIN/CD147 (from UniProt P35613 140-385) (receptor)
